In publication PMC7335187, “Super-assembly of ER-phagy receptor Atg40 induces local ER remodeling at contacts with forming autophagosomal membranes” (Nature Communications, 2020):
Changes are numbered by the printed parent chain. Names may count otherwise. Results are given in words; binding and its absence hold for the method and conditions named. Binding seen in cells or lysates may run through a third protein. Some results given as binding are weak or reduced against the parent protein; the word gives no strength. Sequences can lack the tags named with a protein.

Key:
Atg8-GFP (S. cerevisiae) [1] = target: T1, Atg8-GFP (S. cerevisiae) (UniProt P38182); assay: co-IP; lysates of ATG8-GFP atg4Δ atg40Δ cells expressing Atg40-HA, rapamycin 6 h; Atg8-GFP precipitated with GFP nanobody-conjugated magnetic beads, 2 h at 4 °C; IP buffer 50 mM Tris-HCl pH 8.0, 150 mM NaCl, 1 mM EDTA, 10% glycerol, 0.5% Triton X-100; blots for GFP and HA
T1 sequence: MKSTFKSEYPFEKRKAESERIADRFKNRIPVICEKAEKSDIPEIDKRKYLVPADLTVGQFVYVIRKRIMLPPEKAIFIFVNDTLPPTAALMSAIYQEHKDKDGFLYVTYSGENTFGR

Atg40-HA (S. cerevisiae) = Atg40-HA (S. cerevisiae) (UniProt Q99325); assay: co-IP; first step: lysates of cells coexpressing Atg40-FLAG, Atg40-GFP and Atg40-HA (ATG40 promoter), rapamycin 6 h, 0.5% Triton X-100; anti-FLAG antibody-conjugated beads; wild-type, atg1Δ, atg2Δ and atg8Δ cells
[2] = target: Atg40 AIM mutant (Y242A M245A), tagged with FLAG, GFP or HA (S. cerevisiae) (UniProt Q99325); assay: co-IP; two-step: anti-FLAG beads, elution with 3 x FLAG peptide, then GFP nanobody-conjugated beads, blot for Atg40-HA; wild-type cells; larger oligomers significantly decreased in atg1Δ, atg2Δ and atg8Δ cells
[3] = target: Atg40 AIM mutant (Y242A M245A), tagged with FLAG, GFP or HA (S. cerevisiae) (UniProt Q99325); assay: co-IP; first step: lysates of cells coexpressing Atg40-FLAG, Atg40-GFP and Atg40-HA (ATG40 promoter), rapamycin 6 h, 0.5% Triton X-100; anti-FLAG antibody-conjugated beads; wild-type, atg1Δ, atg2Δ and atg8Δ cells
Atg8-GFP (S. cerevisiae) [4] = target: T1, Atg8-GFP (S. cerevisiae); assay: co-IP; Supplementary Fig. 2a (a blot; legend not shown); the methods tell only of immunoprecipitation of Atg8-GFP from yeast lysates

B1: Atg40-HA (protein, UniProt Q99325 1-256)
chain: MFNLILWPLFLLTSVAIPLQLTLEVVYLTSSVDFSKASAAKTATSLGQSPVVITIYKSLLKYWSLYEFIHFIYLYTPIDAFLNFLPFTSLLMSFGSICLTRELVYDFIAFMESQNKLTGFLNKITEPNFNSYLLFSSIYNIWFADDTNDKFLFGKLTQILISVTKRYEFPRTFYLAKVSDFLQNLILTRLRPFVTEQPQGDKNRYQNGDRESTKNGAAYQKSSQQSSSFEQNFTSTEFPNDYDFMEDILDETTELD
In the case of B1, the binding (Atg8-GFP (S. cerevisiae) [1]) is reported as “binds” and the binding (Atg40-HA (S. cerevisiae)) is reported as “binds”.

B2: Atg40 AIM mutant (Y242A M245A), tagged with FLAG, GFP or HA (protein, UniProt Q99325 1-256)
chain: B1 chain with Y242A, M245A
With B2 the binding [2] was “binds” and the binding [3] was “binds”.

B3: Atg40 (as compared in Supplementary Fig. 2a) (protein, UniProt Q99325 1-256)
chain: B1 chain
In the case of B3, the binding (Atg8-GFP (S. cerevisiae) [4]) is reported as “binds”.

B4: TMD-40C (protein, UniProt P33754 24-58; Q99325 194-256)
chain: ETKSISVYTPLIYVFILVVSLVMFASSYRKKQAKKVTEQPQGDKNRYQNGDRESTKNGAAYQKSSQQSSSFEQNFTSTEFPNDYDFMEDILDETTELD
B4 was tested, and the binding (Atg8-GFP (S. cerevisiae) [4]) was “binds”.
